The source of these data is patent publication US10336792B2 (priority 2014, dated 2019).

For some assays here: Strings that start with PEPTIDE1 are HELM notation: dots part the residues, brackets hold end groups and non-standard residues. Positions of bridges follow the written chain, without caps; N, C: chain ends. Non-standard residues stand in square brackets, D forms with d. Residues, ends and D or L forms follow the SMILES beside them. Groups on a side chain read outwards from the residue. Chains are numbered I, II in the order given. Dab = NCC[C@H](N)C(=O)O; Dap = NC[C@H](N)C(=O)O

Series [1] can be described thus: general procedure: Fmoc solid-phase peptide synthesis; Rink-amide resin; PyBOP or HOBt with DIPEA or DIC in NMP or DMF; HATU/DIPEA or HOBt/DIC/DIPEA for. The conditions noted are these: conjugation step.
Series [2] has as its system Escherichia coli (strain DH5α). It is filed as cell-based. The conditions noted are these: MHC on hRBC / MIC E. coli. How it is done: (§1) Antimicrobial activity was assayed against Bacillus subtilis (strain BR151), Escherichia coli (strain DH5α) and Pseudomonas aeruginosa (strain PA01). Microdilution broth method was used to determine the minimal inhibitory concentration (MIC). A colony of bacteria was grown in LB-medium overnight at 37° C. The concentration was quantified by measuring absorbance at 600 nm and diluted to OD600=0.1 (1×10^8 CFU/mL). The samples were prepared as stock solutions of 1 mg mL^−1 in H2O and diluted serially by ⅔ in nutrient LB in a 96-well microtiterplate (Cornstar, polypropylene, untreated). The sample solutions (50 μL) were mixed with the diluted bacterial suspension with an OD600 nm of 0.001 (50 μL). […] The plates were incubated at 37° C. until satisfactory growth (18-24 h). For each test, two columns of the plate were kept for sterility control (SC, broth only) and growth control (GC, broth with bacterial inoculums, no antibiotics). 10 μL of a solution of MTT (0.1% in H2O) was added to each well. The minimal inhibitory concentration (MIC) was defined as the lowest concentration of the antimicrobial substance (peptide dendrimer) that inhibited visible growth of the tested bacteria (yellow) with the unaided eye. For microbiological study the linear peptide LysTyrLysLysAlaLeuLysLysLeuAlaLysLeuLeu (SEQ ID No. 1) was used as reference.
(§2) The AMPD library was tested for their antimicrobial activity against B. subtilis BR151, a Gram-positive bacterium and E. coli DH5α, another Gram-negative bacterium, to cover a broader spectrum of different bacteria. […] Therefore no explicit SAR can be established, but clearly the hydrophobic amino acids Ala and Tyr seem to have a significant influence in reducing activity.

The subject of series [3] is Bacillus subtilis (strain BR151). The format is cell-based. The conditions noted are these: MHC on hRBC / MIC B. subtilis. The procedure:
as §1, §2

Series [4] concerns Pseudomonas aeruginosa (strain PA01). It is filed as cell-based. The conditions noted are these: MHC on hRBC / MIC PAO1. The procedure:
as §1
All peptides were tested for their activity against P. aeruginosa PAO1 in a broth dilution assay (Wiegand, I. et al., 2008, Nat. Protoc., 3, 163-75; Clinical and Laboratory Standards Institute document M7-A7 7th Edition) to determine the MIC (minimal inhibitory concentration) values. The stock solutions of the peptide dendrimers were diluted serially by ⅔ in nutrient LB in 96-well microtiter plates. Bacteria were grown in nutrient LB overnight at 37° C. After dilution the bacteria were added to the peptides and incubated overnight (18-24 h) at 37° C. […] The position of the amino acids between the branching units seems to be optimal if the hydrophobic amino acid is the first counting from C-terminus and the charged one is on the second position. Introducing Ala as additional hydrophobic amino acid reduces activity (MSt-120). […] Also assembling charged or hydrophobic sections between the branching units leads to loss of activity whereas altering L-amino acids to D-amino acids maintains activity leading to the hypothesis that the mechanism of action should not be receptor mediated.

Turning to (KL)32(KKL)16(KKLCxKL)8(KKL)4(KKL)2KKL, the conjugation yield in series [1] was 17.0%.

In the case of `NCC[C@H](NC(=O)[C@H](CCCCNC(=O)[C@H](Cc1c[nH]c2ccccc12)NC(=O)[C@H](CCN)NC(=O)[C@H](CCCCNC(=O)[C@H](Cc1c[nH]c2ccccc12)NC(=O)[C@@H](N)CCN)NC(=O)[C@H](Cc1c[nH]c2ccccc12)NC(=O)[C@@H](N)CCN)NC(=O)[C@H](Cc1c[nH]c2ccccc12)NC(=O)[C@H](CCN)NC(=O)[C@H](CCCCNC(=O)[C@H](Cc1c[nH]c2ccccc12)NC(=O)[C@@H](N)CCN)NC(=O)[C@H](Cc1c[nH]c2ccccc12)NC(=O)[C@@H](N)CCN)C(=O)N[C@@H](Cc1c[nH]c2ccccc12)C(N)=O` [MSt-176, (DabW)4(KDabW)2(KDabW)] (I: H-[Dab]WK([Trp-Dab])[Dab]WK[Dab]W-NH2 / II: H-[Dab]WK([Trp-Dab])[Dab]W; amide I:6-II:C; N-terminus assumed), the “TI (MHC/MIC), E. coli DH5α” value in series [2] is 15. Further, the “TI (MHC/MIC), B. subtilis BR151” value in series [3] worked out at 46. Moreover, the “TI (therapeutic index = MHC/MIC), P. aeruginosa PAO1” value in series [4] is given as 46.

Regarding `CC(C)C[C@H](NC(=O)[C@H](CCCNC(=N)N)NC(=O)[C@H](CNC(=O)[C@H](CC(C)C)NC(=O)[C@H](CCCNC(=N)N)NC(=O)[C@H](CNC(=O)[C@H](CC(C)C)NC(=O)[C@@H](N)CCCNC(=N)N)NC(=O)[C@H](CC(C)C)NC(=O)[C@@H](N)CCCNC(=N)N)NC(=O)[C@H](CC(C)C)NC(=O)[C@H](CCCNC(=N)N)NC(=O)[C@H](CNC(=O)[C@H](CC(C)C)NC(=O)[C@@H](N)CCCNC(=N)N)NC(=O)[C@H](CC(C)C)NC(=O)[C@@H](N)CCCNC(=N)N)C(N)=O` [MSt-139, (RL)4(BRL)2(BRL)] (I: H-RL[Dap]([Leu-Arg])RL[Dap]RL-NH2 / II: H-RL[Dap]([Leu-Arg])RL; amide I:6-II:C), the “TI (MHC/MIC), E. coli DH5α” value in series [2] was 57. Moreover, in series [3], the “TI (MHC/MIC), B. subtilis BR151” value is 61. Further, the “TI (therapeutic index = MHC/MIC), P. aeruginosa PAO1” value in series [4] worked out at 485.

Consider `CC(C)C[C@H](NC(=O)[C@H](CCCCN)NC(=O)[C@H](CCCCNC(=O)[C@H](CC(C)C)NC(=O)[C@H](CCCCN)NC(=O)[C@H](CCCCNC(=O)[C@H](CC(C)C)NC(=O)[C@H](CCCCN)NC(=O)[C@H](CCCCNC(=O)[C@H](CC(C)C)NC(=O)[C@@H](N)CCCCN)NC(=O)[C@H](CC(C)C)NC(=O)[C@@H](N)CCCCN)NC(=O)[C@H](CC(C)C)NC(=O)[C@H](CCCCN)NC(=O)[C@H](CCCCNC(=O)[C@H](CC(C)C)NC(=O)[C@@H](N)CCCCN)NC(=O)[C@H](CC(C)C)NC(=O)[C@@H](N)CCCCN)NC(=O)[C@H](CC(C)C)NC(=O)[C@H](CCCCN)NC(=O)[C@H](CCCCNC(=O)[C@H](CC(C)C)NC(=O)[C@H](CCCCN)NC(=O)[C@H](CCCCNC(=O)[C@H](CC(C)C)NC(=O)[C@@H](N)CCCCN)NC(=O)[C@H](CC(C)C)NC(=O)[C@@H](N)CCCCN)NC(=O)[C@H](CC(C)C)NC(=O)[C@H](CCCCN)NC(=O)[C@H](CCCCNC(=O)[C@H](CC(C)C)NC(=O)[C@@H](N)CCCCN)NC(=O)[C@H](CC(C)C)NC(=O)[C@@H](N)CCCCN)C(N)=O` [MSt-112, (KL)8(KKL)4(KKL)2(KKL)] (I: H-KLK([Leu-Lys])KLKKLKKL-NH2 / II: H-KLK([Leu-Lys])KLKKL / III: H-KLK([Leu-Lys])KL / IV: H-KLK([Leu-Lys])KL; amide I:6-IV:C, I:9-II:C, II:6-III:C), for which the “TI (MHC/MIC), E. coli DH5α” value in series [2] worked out at 210. Moreover, the “TI (MHC/MIC), B. subtilis BR151” value in series [3] came out at 279. In series [4], the “TI (therapeutic index = MHC/MIC), P. aeruginosa PAO1” value came out at 419.

In the case of “PEPTIDE1{[CH2CO].R.L.K.R.L.K.R.L.[am]}|PEPTIDE2{[CH2CO].R.L}|PEPTIDE3{[CH2CO].R.L.K.R.L}|PEPTIDE4{[CH2CO].R.L}|PEPTIDE5{R.L.K.R.L.C.[am]}|PEPTIDE6{R.L.K.R.L.C.[am]}|PEPTIDE7{R.L.K.R.L.C.[am]}|PEPTIDE8{R.L.K.R.L.C.[am]}|PEPTIDE9{R.L}|PEPTIDE10{R.L}|PEPTIDE11{R.L}|PEPTIDE12{R.L}$PEPTIDE1,PEPTIDE2,4:R3-3:R2|PEPTIDE1,PEPTIDE3,7:R3-6:R2|PEPTIDE3,PEPTIDE4,4:R3-3:R2|PEPTIDE1,PEPTIDE5,1:R3-6:R3|PEPTIDE2,PEPTIDE6,1:R3-6:R3|PEPTIDE3,PEPTIDE7,1:R3-6:R3|PEPTIDE4,PEPTIDE8,1:R3-6:R3|PEPTIDE5,PEPTIDE9,3:R3-2:R2|PEPTIDE6,PEPTIDE10,3:R3-2:R2|PEPTIDE7,PEPTIDE11,3:R3-2:R2|PEPTIDE8,PEPTIDE12,3:R3-2:R2$$$V2.0”, the conjugation yield in series [1] came to 31%.

As for (KL)16(KKLCxKL)8(KKL)4(KKL)2KKL, the conjugation yield in series [1] is 37.0%.

In series [1], (KL)16(KKL)8(KKLCxKL)4(KKL)2KKL had a conjugation yield of 42.0%.

Turning to “PEPTIDE1{[CH2CO].K.L.K.K.L.K.K.L.[am]}|PEPTIDE2{[CH2CO].K.L}|PEPTIDE3{[CH2CO].K.L.K.K.L}|PEPTIDE4{[CH2CO].K.L}|PEPTIDE5{K.L.K.K.L.C.[am]}|PEPTIDE6{K.L.K.K.L.C.[am]}|PEPTIDE7{K.L.K.K.L.C.[am]}|PEPTIDE8{K.L.K.K.L.C.[am]}|PEPTIDE9{K.L}|PEPTIDE10{K.L}|PEPTIDE11{K.L}|PEPTIDE12{K.L}$PEPTIDE1,PEPTIDE2,4:R3-3:R2|PEPTIDE1,PEPTIDE3,7:R3-6:R2|PEPTIDE3,PEPTIDE4,4:R3-3:R2|PEPTIDE1,PEPTIDE5,1:R3-6:R3|PEPTIDE2,PEPTIDE6,1:R3-6:R3|PEPTIDE3,PEPTIDE7,1:R3-6:R3|PEPTIDE4,PEPTIDE8,1:R3-6:R3|PEPTIDE5,PEPTIDE9,3:R3-2:R2|PEPTIDE6,PEPTIDE10,3:R3-2:R2|PEPTIDE7,PEPTIDE11,3:R3-2:R2|PEPTIDE8,PEPTIDE12,3:R3-2:R2$$$V2.0”, the conjugation yield in series [1] amounted to 73%.
